Measurements from doi:10.1101/2025.03.24.644918.
These are yes or no findings as the source states them, for the method shown. In cells and extracts the contact can be indirect. Some binding calls cover weakened binding; strength is not graded here. Tags and fused reporters may be left off the sequences shown.

Sequences of proteins named here, by UniProt entry; tags and fusion partners are left off.
UniProt Q8TDY2: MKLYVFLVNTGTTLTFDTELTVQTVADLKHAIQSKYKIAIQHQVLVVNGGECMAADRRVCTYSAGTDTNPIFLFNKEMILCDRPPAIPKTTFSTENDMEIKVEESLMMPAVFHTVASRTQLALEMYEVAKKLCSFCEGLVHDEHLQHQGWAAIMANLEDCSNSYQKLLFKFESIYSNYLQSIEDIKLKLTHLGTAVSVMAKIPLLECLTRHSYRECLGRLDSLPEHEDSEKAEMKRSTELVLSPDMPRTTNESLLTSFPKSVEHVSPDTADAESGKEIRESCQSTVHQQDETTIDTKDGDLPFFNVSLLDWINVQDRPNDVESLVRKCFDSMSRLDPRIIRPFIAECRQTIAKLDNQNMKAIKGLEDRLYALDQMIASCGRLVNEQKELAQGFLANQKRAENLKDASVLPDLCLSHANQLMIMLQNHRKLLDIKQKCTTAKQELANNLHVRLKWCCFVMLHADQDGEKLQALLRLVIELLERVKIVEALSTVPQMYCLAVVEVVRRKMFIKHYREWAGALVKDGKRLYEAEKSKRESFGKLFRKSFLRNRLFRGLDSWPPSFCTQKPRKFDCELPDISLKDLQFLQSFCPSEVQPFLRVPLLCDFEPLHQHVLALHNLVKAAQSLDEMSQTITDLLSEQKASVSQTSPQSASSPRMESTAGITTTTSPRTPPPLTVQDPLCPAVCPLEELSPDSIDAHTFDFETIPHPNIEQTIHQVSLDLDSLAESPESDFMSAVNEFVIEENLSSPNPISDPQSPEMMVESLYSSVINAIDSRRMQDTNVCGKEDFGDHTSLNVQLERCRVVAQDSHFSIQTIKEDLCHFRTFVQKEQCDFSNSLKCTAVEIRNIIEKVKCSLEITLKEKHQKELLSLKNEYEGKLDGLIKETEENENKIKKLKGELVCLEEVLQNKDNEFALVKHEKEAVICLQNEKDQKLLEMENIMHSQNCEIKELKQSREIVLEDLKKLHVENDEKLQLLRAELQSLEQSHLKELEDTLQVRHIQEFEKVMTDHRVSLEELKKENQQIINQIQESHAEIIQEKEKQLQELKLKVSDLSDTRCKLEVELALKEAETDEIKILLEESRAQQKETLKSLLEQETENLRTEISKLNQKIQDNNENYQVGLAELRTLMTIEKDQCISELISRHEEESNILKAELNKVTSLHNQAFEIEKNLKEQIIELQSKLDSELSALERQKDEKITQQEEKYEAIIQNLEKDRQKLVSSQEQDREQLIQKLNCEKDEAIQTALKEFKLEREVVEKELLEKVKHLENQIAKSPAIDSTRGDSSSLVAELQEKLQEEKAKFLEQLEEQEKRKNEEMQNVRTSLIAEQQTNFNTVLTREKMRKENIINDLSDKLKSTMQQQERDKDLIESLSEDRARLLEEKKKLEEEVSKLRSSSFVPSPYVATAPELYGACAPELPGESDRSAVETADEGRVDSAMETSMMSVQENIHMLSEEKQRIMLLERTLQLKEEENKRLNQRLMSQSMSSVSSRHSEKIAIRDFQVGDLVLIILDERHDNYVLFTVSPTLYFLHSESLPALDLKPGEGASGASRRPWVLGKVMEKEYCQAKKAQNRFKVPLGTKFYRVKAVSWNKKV

Biological target: T1, N-terminally myc-tagged full-length murine CCPG1 (mouse) (UniProt Q640L3)
T1 sequence: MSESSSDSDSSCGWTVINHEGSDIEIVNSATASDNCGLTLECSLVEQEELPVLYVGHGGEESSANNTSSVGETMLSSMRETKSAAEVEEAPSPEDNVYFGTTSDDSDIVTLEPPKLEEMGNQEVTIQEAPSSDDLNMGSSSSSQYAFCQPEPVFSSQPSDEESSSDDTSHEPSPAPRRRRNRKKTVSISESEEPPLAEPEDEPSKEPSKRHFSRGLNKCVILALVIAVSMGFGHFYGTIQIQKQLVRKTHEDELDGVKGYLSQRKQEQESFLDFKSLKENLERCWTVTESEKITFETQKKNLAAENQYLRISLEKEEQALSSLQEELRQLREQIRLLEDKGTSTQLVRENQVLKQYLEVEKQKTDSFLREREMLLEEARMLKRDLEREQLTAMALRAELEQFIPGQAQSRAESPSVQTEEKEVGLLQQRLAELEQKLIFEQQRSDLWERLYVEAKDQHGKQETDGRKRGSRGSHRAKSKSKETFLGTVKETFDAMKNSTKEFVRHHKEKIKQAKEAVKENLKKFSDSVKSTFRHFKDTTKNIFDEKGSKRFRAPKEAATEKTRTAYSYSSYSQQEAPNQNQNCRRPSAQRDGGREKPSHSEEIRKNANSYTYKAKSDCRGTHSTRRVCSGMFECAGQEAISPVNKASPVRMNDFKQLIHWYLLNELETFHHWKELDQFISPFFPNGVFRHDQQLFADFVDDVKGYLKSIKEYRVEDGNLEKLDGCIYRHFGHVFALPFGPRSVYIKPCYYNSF
Assay: co-IP

Question: How did the binding turn out when “FIP200 (endogenous) (from UniProt Q8TDY2 1-1594)” was run?
Answer: binds
